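Luminescence from an EWS-FLI1 target-promoter (NR0B1) reporter, set against a CMV-promoter reporter, two days after silencing single genes in TC32 Ewing sarcoma cells.
Each siRNA was applied at 20 nM.
A z-score of the log NR0B1-over-CMV signal, less the median of siRNAs with the same seed; more negative means a stronger specific loss of the NR0B1 reporter.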

This is part of the screen; most of the strongest results are not listed here.
Sequences are the guide (antisense) strand, without overhang.

Sequence,target gene,seed-corrected z-score
AUCGAUGACACUAUUUGCC,NPNT,-0.3484
UUGGUGGAAGGUGUUGAUG,S100A9,-0.217
AUAGUAAAAUGGGUCAGGU,FXYD7,-0.8831
UAAGAUACUAGACAGUUCC,IL6ST,0.4164
UGACUGGACAGUACAGUGC,PTCHD3P1,-0.4558
UCUUUUAAAGUUCCUCCUG,SPANXA1,0.1877
UGGUGUCACAAAGCUGCUG,GPR146,-1.473
UCCAUGACAAAACUCAUUC,SUV39H2,-0.004536
UAAUGGAGCAGCCUUUGGU,C8orf74,-0.06634
UCAUCAACUAAGAAGAGGC,RTN4,-0.8258
CAACUGGACGGUGCAGAUC,TNFRSF25,-1.378
UUUAGGGUGUGGAUCUUCC,ZNF70,0.6898
AAUCAAGACAUAGUGGUCC,TM4SF1,0.09466
UCACGCUCGAUCUCAAAGG,AANAT,-0.3531
UUUGUAAGCUCAUAGACUG,SMAD1,-0.0402
UACGUGUGCAAAGCCGUGC,ADM2,0.41
UCCAGGUUAACCAUGUGCC,GPX4,-0.4323
UCAGGCAUCUCGUCAAUCC,HDGF,0.8684
UAUAGGUUCAGUGACCUUC,ARHGAP15,0.9187
UUCUGAACCAUUCGGGAGG,MLLT1,0.05944
UUUACAUUUGGAGUAAUCG,EIF2B1,-0.1027
UUUGAGCAGGGCAAUGUCG,CELA2B,-0.822
UUAUCAGUAAGGAUGAUGG,C2orf70,0.1321
UUCUUGUAAAUGUCCUCAC,FAM157A,0.4633
UAUGUAGCAGGUACUGAAC,NDUFAF5,1.43
UUUAAGAACAUGAACAUCA,FAM131A,0.4725
UUUCUAUCUCAGUUACUCC,AGPAT3,0.5601
UGUUGUUCCAGUAGCUCAG,TMEM108,1.144
UCUUUGACUUUACAUCUCC,COPB1,-1.866
UUUUGGUUGGGCAGAAUCC,TANGO6,-0.232
AAACUUGUUGUACUGCUUG,UCKL1,0.8447
UUUUCGGUAAUUUUUAAGG,CDKN3,-0.08503
UCUUCUGCUGCUAUCCUCC,ATP5I,-0.4719
UUUUGAAUCCGACUGAUUC,C12orf45,0.3379
AUAAGUAUCUUUUCAGUAG,LOC284023,0.07619
UGAACGUGUACUUUGGUCU,RAB39B,-0.2286
AACUGAGUCAUCCAGGGCC,CST9L,-1.938
UUCUUGAUACCAGAAGGCU,LEUTX,-0.4738
AUCCGGUCCAGUUCUAACG,IMPG2,0.7472
UAGGUCAUCAGUAUGAGAC,TMEM26,0.854
AUAGUUGUAAUCAAAAGAC,SRSF10,-0.8374
UUUCCAUUAUGUCGGUUGC,LOC642381,0.2511
UCGGCGAACAUCUUCUCCG,SIL1,0.4892
AAAGUGAUCACCAGGGUUG,CTNS,0.4617
UCCUCCGCACGUUUUCGUC,TMEM190,-0.1582
UGAAGUGCGAGCUUAGGCG,ZNF771,-0.09632
UUCUCGAUCUUCUCUGUCC,MFAP1,-0.2158
UGUGGAUGAUGUUUCUUAC,USP41,0.2186
UUUGAUUGCACUUUGGUAC,PPARG,0.6025
AUAAUGGUAACGGAUAUCC,MSANTD2,-0.7781
UGUAUAAUUCUCAUCAACC,RIBC1,0.4107
ACUAGAAAAACCUAUGUCU,PLPP6,1.082
UCAAGUUGCAGGAAUCACU,C6orf48,1.642
UCUGGUUCCGUGUUGUGCU,HSPB3,-1.171
UUUGACCCAAGAGCAGUAG,WDR11,0.709
UUGCGAGCAGGCAUACAGC,DAND5,0.2448
UUCAGGAUACUUGUAGUUC,EPB42,0.05635
UUCUUUGUAUCUUACAUAU,HPDL,0.09648
UGAAGUUACACAGAUGGCG,CARD9,1.615
UCCUAGAUUCACAAGUUGC,VCAM1,-0.04213
UGAGCAGACGCGACAAGAG,RPS29P3,2.05
AGAACCUUGAGUGAGAUGG,FAM131C,-0.05895
UUCCGAUUCGGUCCAGACG,AVPR1A,-0.155
UUUGCGAUCACCUGGAUUG,TPMT,0.1348
UCCGUCUUCUGGUAGGUGG,DBN1,-0.1203
UCUCAAUUCAGUAAUCUCA,KRT10,-0.4036
AUCUCGAUCAGCAGGAUUC,EGFL6,0.3304
UUCUUUAGAACCUUCAGGC,SIRT7,-0.9064
UCUGAAGUCAGGACACUUG,LAPTM4BP1,1.833
ACAUGUACCACCCUAGGUG,LOC338667,0.9269
UCGUGUUUAUGUCUGUUGG,TCF12,0.2534
UACUAUGGUAGCAAGGAGC,ACKR2,1.595
AAGUUUAACAGGUAACUCG,IGF1,0.6945
ACCGUGUCGGGUAAAGUGC,NDRG4,1.091
UUCGGAAUAAUCACAGCCC,XCR1,-0.05375
AUGGGCUUAGGAUCAAAGG,GLUL,-0.9158
UCACUAACCAACAUCGCUG,PDS5A,0.6617
UUAUAUAAGUACAUGUUCC,WDR20,0.9636

Some entries from above, unchanged:

| Sequence | target gene | seed-corrected z-score |
|---|---|---|
| `UUUUGGUUGGGCAGAAUCC` | TANGO6 | -0.232 |
| `UCCAGGUUAACCAUGUGCC` | GPX4 | -0.4323 |
| `UCGUGUUUAUGUCUGUUGG` | TCF12 | 0.2534 |
| `UCUUUGACUUUACAUCUCC` | COPB1 | -1.866 |
| `UUGGUGGAAGGUGUUGAUG` | S100A9 | -0.217 |
| `UUUAAGAACAUGAACAUCA` | FAM131A | 0.4725 |
| `AAGUUUAACAGGUAACUCG` | IGF1 | 0.6945 |
| `AUCUCGAUCAGCAGGAUUC` | EGFL6 | 0.3304 |
| `UCAUCAACUAAGAAGAGGC` | RTN4 | -0.8258 |

Data taken from PubChem BioAssay AID1159506, deposited by NCATS (2015).